The assay is described as follows: qHTS Assay to Find Inhibitors of Chronic Active B-Cell Receptor Signaling. The following applies: ABC-DLBCL IkBa-CBG/CBR reporter, luminescence ratio (green luciferase fused to IkBa over red control in TMD8 lymphoma cells), 4 h. The essentials:
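TMD8 human ABC-DLBCL cells with doxycycline-inducible IκBα–green luciferase fusion and unfused red luciferase, in 0.5% FBS medium; compounds up to 46 uM, 4 h at 37C. Green/red luminescence ratio, filter-overlap corrected, fitted to concentration-response curves.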

The mark [1] stands for this setting: measured here: CBR red luminescence, cell number.
Setting [2] is: measured here: IkBa-CBG green luminescence.

The other results are listed elsewhere or left out. Shown are side measurements of this screen, not its main read-out; they come without a call. Most of these compounds were active or inconclusive in the main read-out, so they are no random draw. Potencies come from curve fits of mixed quality, noted in brackets.

Regarding `O=C(CNC(=O)c1ccccc1Cl)Nc1ccc(F)cc1`, the half-maximal activity concentration (AC50) (commonly the midpoint of the concentration-response curve, whichever way the signal moves) under setting [1] is 5.8 µM [falling, partial curve]. Still for that read-out and setting: for `Cc1ccccc1Nc1nn2c(=O)c3ccccc3nc2s1` the value was 0.224 µM [falling, full curve, poor fit]; for `COc1ccccc1Nc1nc2nonc2nc1N1CCCCC1C` (stereo unspecified), 32.6 µM [rising, partial curve, poor fit]; for `Cc1ccc(-n2c(SCc3ccc(C#N)cc3)nnc2-c2ccccn2)cc1`, 1.41 µM [rising, partial curve, poor fit]. On the same count and under the same terms, next, `NC(=O)C1(N2CCCCC2)CCN(CC(=O)Nc2ccccc2-c2ccccc2)CC1`: 11.6 µM [falling, single point].

In the case of `O=C(N/N=C/c1ccccn1)c1c[nH]c2ccccc12`, the AC50 under setting [1] is 22.4 µM [falling, single point]. Same read-out and setting: next, `Cc1cc2oc(C(=O)Nc3nonc3C)c(C)c2cc1C`: 8.91 µM [rising, partial curve]; `Cc1ccc(NC(=O)CC(=O)c2ccc([N+](=O)[O-])cc2)cc1S(=O)(=O)Nc1cccc(Cl)c1`: 3.16 µM [falling, full curve, poor fit]; `O=C1CC(C(=O)Nc2ccc(C(=O)O)cc2)C(c2ccccc2)O1` (stereo unspecified): 35.5 µM [falling, single point]. As to `CC(C)c1ccc(NC(=O)COc2nncc3ccccc23)cc1`, the AC50 under setting [1] is 9.2 µM [rising, partial curve, poor fit]. `CCOc1cc(S(=O)(=O)NCCN2CCOCC2)c(C)cc1C`: under setting [1], the AC50 is 20.6 µM [rising, single point].

As for `CCOC(=O)c1c(NC(=O)CC2SC(=NC)N(C)C2=O)sc(C)c1C` (stereo unspecified), under setting [1], the AC50 was 25.9 µM [rising, single point].

In the case of `CC1CN(c2nc3c(c(=O)n(Cc4ccc(Cl)cc4)c(=O)n3C)n2C)CC(C)O1` (stereo unspecified), under setting [1], the AC50 was 1.41 µM [falling, partial curve, poor fit].

As to `COc1ccc(NC(=O)CCCN2C(=O)C(c3ccccc3)Oc3cccnc32)c(OC)c1` (stereo unspecified), the AC50 under setting [1] was 3.55 µM [rising, partial curve, poor fit]. Still for that read-out and setting: for `O=C(O)CCc1ccc(-c2ccccc2)n1NC(=O)c1sc2ccccc2c1Cl` the value was 29.1 µM [falling, single point]; for `O=C(CCC(=O)OCC(=O)c1ccc(F)cc1)NC1CCCCC1`, 7.31 µM [rising, full curve, poor fit]; for `C[C@H](NC(=O)c1nc[nH]c1C(=O)NCc1ccc(CNC(=O)OC(C)(C)C)cc1)c1ccccc1`, 29.1 µM [falling, single point]. For `CCCCC/C=C\C/C=C\C/C=C\C/C=C\CCCC(=O)O`, the AC50 reads like this: under setting [1], 8.2 µM [rising, partial curve]; under setting [2], 5.8 µM [falling, partial curve]. For the compound `Cc1ccc(/C=C2\SC(=S)N(CCCC(=O)Nc3ccc(O)cc3)C2=O)cc1`, the AC50 under setting [1] is 2.51 µM [falling, partial curve]. The same measure, in the same setting: next, `COc1ccccc1OCC(=O)Nc1cc2c(cc1C(=O)O)OCCCO2`: 20 µM [falling, partial curve, poor fit]; `CCCn1nnnc1SCC(=O)Nc1cccc(NC(=O)c2ccco2)c1`: 1.46 µM [falling, full curve, poor fit]; `O=C(CSc1n[nH]c(-c2ccco2)n1)Nc1sc2c(c1C(=O)Nc1ccccc1)CCCC2`: 10.3 µM [falling, partial curve]. On the same count and under the same terms, next, `CCCc1[nH]nc2c1C(/C(C)=C/c1ccccc1)C(C#N)=C(N)O2` (stereo unspecified): 11.2 µM [falling, partial curve, poor fit]; `CC(=O)N1CCc2cc(Br)cc(S(=O)(=O)CCC(=O)N3CCN(c4ccccn4)CC3)c21`: 17.8 µM [falling, single point].

For the compound `O=C(NCCc1ccccc1)c1cnc2n(c1=O)CCS2`, the AC50 under setting [1] was 12.6 µM [falling, single point]. On the same count and under the same terms, for `Cc1ccccc1N(CC(=O)N/N=C/c1ccc(N(C)C)cc1)C(=O)c1ccccc1` the value was 20.6 µM [falling, partial curve, poor fit]; for `O=C(N/N=C/c1cc(Cl)ccc1O)c1cccnc1`, 31.6 µM [falling, single point].

On to `Nc1ccc(OCc2ccccc2)cc1`, for which the AC50 under setting [1] was 5.17 µM [falling, partial curve, poor fit]. The same measure, in the same setting: for `CSc1ccccc1C(=O)N1CCCC(CCC(=O)NCc2ccc(F)c(F)c2)C1` (stereo unspecified) the value was 25.1 µM [falling, single point]; for `O=C(NCCN1CCN(c2ccccc2Cl)CC1)Nc1ccccc1`, 17.8 µM [rising, partial curve, poor fit]. The same measure, in the same setting: for `CCOC(=O)c1ccc(S(=O)(=O)N2CCN(C3CCCC3)CC2)cc1` the value was 2.82 µM [falling, partial curve]; for `C=CCn1c(SCC(=O)Nc2cc(C)c(Cl)cc2OC)nnc1-c1ccco1`, 14.1 µM [falling, single point].

As to `O=C1N[C@H](Cc2ccccc2)COC(=O)[C@H](Cc2ccc(F)cc2)CC/C=C/C[C@H]1CC(=O)N(CCO)Cc1ccccc1`, the half-maximal activity concentration (AC50) under setting [1] is 29.1 µM [falling, single point]. In the case of `CC(=O)n1cc([C@@H]2C=C(C(=O)Nc3ccccc3)O[C@H](OCCCCO)C2)c2ccccc21`, the AC50 under setting [1] was 35.5 µM [falling, single point]. Same read-out and setting: next, `Cc1ccc2[nH]c(C)c(/C=C/c3cc[n+](C)cc3)c2c1`: 6.31 µM [falling, partial curve, poor fit]. Still for that read-out and setting: for `Cc1ccc(/C=N/NC(=O)c2c[nH]c3ccccc23)o1` the value was 14.6 µM [falling, partial curve, poor fit]; for `Cc1cc(Nc2ccccc2)c2c([N+](=O)[O-])ccc(C)c2n1`, 25.9 µM [rising, single point]. Still for that read-out and setting: next, `C/C(=N\NC(=S)NCc1ccccc1)c1ccccc1`: 2.59 µM [rising, partial curve, poor fit]. Regarding `COc1ccc(C(=O)NC2CCCc3ccccc32)cc1[N+](=O)[O-]` (stereo unspecified), under setting [1], the AC50 is 17.8 µM [rising, single point]. The same measure, in the same setting: next, `FC(F)(F)c1cc(-c2ccccc2)nc(N2CCCCCC2)n1`: 0.82 µM [falling, partial curve, poor fit]; `Cc1cc(C(=O)O)ccc1-n1c(C)cc(C=C2C(=O)c3ccccc3C2=O)c1C`: 35.5 µM [rising, partial curve, poor fit]. For the compound `COc1cc(OC)cc(C(=O)NC(C)c2cnn(-c3ccccc3C)c2C)c1` (stereo unspecified), the AC50 under setting [1] is 14.1 µM [falling, single point]. As to `CN(CC(=O)NC1CCCCCCC1)S(=O)(=O)c1cccc2cccnc12`, under setting [1], the half-maximal activity concentration (AC50) is 0.891 µM [rising, full curve, poor fit]. For `Cc1cccn2c(=O)c3cc(C(=O)NC4CCCC4)sc3nc12`, under setting [1], the AC50 is 2 µM [rising, full curve].

As to `COc1ccc(C(=O)NCC(=O)OCC(=O)c2ccc(Cl)cc2)cc1OC`, the AC50 under setting [1] was 12.6 µM [falling, partial curve, poor fit].

Consider `O=C(CSc1nc2ccccc2[nH]1)Nc1ccc(F)cc1`, for which, under setting [1], the AC50 is 2.91 µM [falling, partial curve].

As to `CCN(CC)C(=O)Cn1ccc(NC(C)=O)nc1=O`, the half-maximal activity concentration (AC50) under setting [1] is 17.8 µM [rising, single point].

With `O=C(O)c1cc2nccc(-c3ccco3)n2n1`, the AC50 under setting [1] is 10 µM [rising, partial curve]. Still for that read-out and setting: next, `COc1cccc(/C=N/NC(=O)Cn2nc([N+](=O)[O-])cc2C)c1`: 6.31 µM [rising, single point]. Same read-out and setting: for `COc1ccc(CNCC(O)(c2ccccc2)c2ccc(F)cc2)cc1OC` (stereo unspecified) the value was 35.5 µM [falling, single point]. The same measure, in the same setting: next, `COc1ccccc1C(=O)C1CCCN(C(=O)c2cn3cc(Cl)ccc3n2)C1` (stereo unspecified): 8.91 µM [falling, partial curve]; `CCOc1ccc(N(CC(=O)NCc2ccc(F)cc2)S(=O)(=O)c2c(C)noc2C)cc1`: 6.51 µM [rising, single point]. Take `c1ccc(-c2cc(-c3nn4c(-c5ccco5)nnc4s3)c3ccccc3n2)cc1`: under setting [1], the AC50 was 11.6 µM [falling, partial curve, poor fit]. Same read-out and setting: for `COCc1cc(C)nc2sc(C(=O)Nc3cccc(OC)c3)c(N)c12` the value was 20 µM [falling, partial curve, poor fit]; for `O=C(O)c1oc2ccccc2c1CSc1ccc(Cl)cc1`, 5.62 µM [rising, single point]. Still for that read-out and setting: for `CCOC(=O)c1[nH]c(C)c(C(=O)N(C)C)c1C` the value was 9.2 µM [rising, partial curve]; for `Cc1ccc(O)c(-c2[nH]ncc2C(=O)c2ccc(Br)cc2)c1`, 20 µM [falling, single point]. On the same count and under the same terms, next, `Cc1c(C(=O)N2CCN(Cc3ccccc3)CC2)sc2ncnc(N3CCOCC3)c12`: 0.731 µM [falling, partial curve, poor fit]. For the compound `COc1ccc2c(C)c(C(=O)O)oc2c1`, the AC50 by setting is: under setting [1], 7.31 µM [rising, partial curve]; under setting [2], 0.651 µM [rising, full curve, poor fit]. Consider `Cn1ccnc1SCC(=O)N(C1CCCCC1)C1CCCCC1`, for which the AC50 under setting [1] is 0.164 µM [rising, full curve, poor fit]. Same read-out and setting: next, `CCOC(=O)N1CCN(C(=O)/C=C/c2ccc(C(C)(C)C)cc2)CC1`: 0.398 µM [rising, partial curve, poor fit].

As to `N=c1n(Cc2ccccc2)c2ccccc2n1CC(O)COc1ccc(Cl)cc1Cl` (stereo unspecified), the AC50 under setting [1] was 17.8 µM [falling, single point].

For `Cc1cccc(C(=O)Nc2nnc(C3=COCCO3)o2)c1`, the AC50 reads like this: under setting [1], 35.5 µM [falling, single point]; under setting [2], 35.5 µM [falling, single point].

Values taken from PubChem BioAssay AID493014 (National Center for Advancing Translational Sciences (NCATS), 2011).
